The values that follow come from patent US6723838.

No constants are given. Whether binding was seen depends on the method and setting. Binding seen in cells or lysates may run through a third protein. Some entries that bind do so weakly or less than the wild type.

The target in test [1] is T1, SAP102 of rat brain (endogenous) (rat) (UniProt Q62936).
T1 sequence (looked up): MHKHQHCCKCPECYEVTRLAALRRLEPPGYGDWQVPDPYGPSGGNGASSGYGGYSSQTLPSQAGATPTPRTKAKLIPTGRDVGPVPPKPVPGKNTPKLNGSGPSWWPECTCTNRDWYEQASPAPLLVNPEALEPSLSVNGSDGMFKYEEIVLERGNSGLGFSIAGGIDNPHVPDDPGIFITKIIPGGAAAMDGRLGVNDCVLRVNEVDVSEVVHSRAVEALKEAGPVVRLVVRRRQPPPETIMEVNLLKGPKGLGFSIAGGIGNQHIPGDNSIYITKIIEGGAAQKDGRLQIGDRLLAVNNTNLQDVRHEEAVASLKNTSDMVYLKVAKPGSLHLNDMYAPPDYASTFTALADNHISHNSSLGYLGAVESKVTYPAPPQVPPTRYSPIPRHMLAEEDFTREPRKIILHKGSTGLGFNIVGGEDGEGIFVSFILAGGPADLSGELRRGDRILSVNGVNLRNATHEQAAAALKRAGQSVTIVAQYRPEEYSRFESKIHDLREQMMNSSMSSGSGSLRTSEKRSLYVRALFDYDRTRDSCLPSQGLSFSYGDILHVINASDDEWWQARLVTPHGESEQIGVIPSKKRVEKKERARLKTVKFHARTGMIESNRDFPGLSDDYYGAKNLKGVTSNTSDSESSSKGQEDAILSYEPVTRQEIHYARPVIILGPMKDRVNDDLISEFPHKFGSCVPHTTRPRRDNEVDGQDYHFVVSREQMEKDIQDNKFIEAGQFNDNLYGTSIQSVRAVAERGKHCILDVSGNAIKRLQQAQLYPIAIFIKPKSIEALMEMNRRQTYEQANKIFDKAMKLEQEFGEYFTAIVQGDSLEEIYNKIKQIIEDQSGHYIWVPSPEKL
The experiment in a line: coimmunoprecipitation from rat brain membranes, immunoblot. For orientation: In western blotting, separated proteins are transferred to a membrane and probed.

The target of test [2] is T1, SAP102 of rat brain (endogenous) (rat). The experiment in a line: coimmunoprecipitation from rat brain membranes (restated).

B1: SYNGAP of rat brain (endogenous) (protein)
chain: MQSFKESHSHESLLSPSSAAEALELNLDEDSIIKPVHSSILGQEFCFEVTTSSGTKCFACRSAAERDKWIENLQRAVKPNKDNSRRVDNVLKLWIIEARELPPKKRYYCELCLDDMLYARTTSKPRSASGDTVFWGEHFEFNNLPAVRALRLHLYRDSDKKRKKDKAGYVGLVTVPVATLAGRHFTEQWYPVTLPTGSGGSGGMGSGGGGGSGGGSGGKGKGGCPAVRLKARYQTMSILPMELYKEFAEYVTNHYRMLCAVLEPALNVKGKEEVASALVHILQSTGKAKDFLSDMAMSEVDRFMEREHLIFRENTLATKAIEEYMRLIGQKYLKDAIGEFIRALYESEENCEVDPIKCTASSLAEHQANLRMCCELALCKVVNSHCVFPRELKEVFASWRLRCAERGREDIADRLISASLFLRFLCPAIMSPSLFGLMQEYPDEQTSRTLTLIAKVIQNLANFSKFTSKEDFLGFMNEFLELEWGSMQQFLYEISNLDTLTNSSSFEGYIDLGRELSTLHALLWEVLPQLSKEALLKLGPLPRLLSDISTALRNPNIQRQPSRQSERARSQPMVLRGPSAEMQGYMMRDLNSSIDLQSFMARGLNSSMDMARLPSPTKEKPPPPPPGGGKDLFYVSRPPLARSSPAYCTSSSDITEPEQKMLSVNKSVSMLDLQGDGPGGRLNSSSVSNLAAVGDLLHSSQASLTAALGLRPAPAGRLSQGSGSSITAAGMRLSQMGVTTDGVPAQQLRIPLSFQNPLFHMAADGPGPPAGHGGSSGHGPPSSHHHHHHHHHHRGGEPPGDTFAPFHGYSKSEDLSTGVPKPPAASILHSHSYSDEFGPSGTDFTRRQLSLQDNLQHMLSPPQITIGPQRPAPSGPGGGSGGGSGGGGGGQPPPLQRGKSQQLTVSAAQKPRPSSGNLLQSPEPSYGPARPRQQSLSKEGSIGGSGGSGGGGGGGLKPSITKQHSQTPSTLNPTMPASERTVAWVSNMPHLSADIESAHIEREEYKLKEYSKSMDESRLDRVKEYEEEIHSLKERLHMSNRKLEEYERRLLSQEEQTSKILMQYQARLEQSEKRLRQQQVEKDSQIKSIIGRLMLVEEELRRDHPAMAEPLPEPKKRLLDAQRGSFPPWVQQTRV
For B1, the binding entry in test [1] and in test [2] was “binds” in each case.
